Results reported in paper PMC11499256, “Two-factor authentication underpins the precision of the piRNA pathway” (Nature, 2024).
No constants are given. Whether binding was seen depends on the method and setting. In cells and extracts the contact can be indirect. Some results given as binding are weak or reduced against the parent protein; the word gives no strength. For some assays here: Tags and fused reporters may be left off the sequences shown.

Protein sequences, listed by entry. Tags and fused reporters are not part of them.
UniProt Q61142: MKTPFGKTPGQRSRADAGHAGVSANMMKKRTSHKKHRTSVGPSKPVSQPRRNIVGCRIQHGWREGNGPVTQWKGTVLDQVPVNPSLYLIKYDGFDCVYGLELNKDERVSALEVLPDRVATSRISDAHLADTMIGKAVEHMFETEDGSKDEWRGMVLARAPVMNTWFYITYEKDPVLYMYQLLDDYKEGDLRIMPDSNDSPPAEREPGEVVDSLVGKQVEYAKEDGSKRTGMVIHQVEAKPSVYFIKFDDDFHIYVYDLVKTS

T1: GFP fused with 20 amino acids (327–346) of mouse SPOCD1 (mouse) (UniProt B1ASB6)
T1 sequence: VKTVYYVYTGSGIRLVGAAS

T2: SPOCD1 fragment 1 (amino acids 1–409) (mouse) (UniProt B1ASB6)
T2 sequence: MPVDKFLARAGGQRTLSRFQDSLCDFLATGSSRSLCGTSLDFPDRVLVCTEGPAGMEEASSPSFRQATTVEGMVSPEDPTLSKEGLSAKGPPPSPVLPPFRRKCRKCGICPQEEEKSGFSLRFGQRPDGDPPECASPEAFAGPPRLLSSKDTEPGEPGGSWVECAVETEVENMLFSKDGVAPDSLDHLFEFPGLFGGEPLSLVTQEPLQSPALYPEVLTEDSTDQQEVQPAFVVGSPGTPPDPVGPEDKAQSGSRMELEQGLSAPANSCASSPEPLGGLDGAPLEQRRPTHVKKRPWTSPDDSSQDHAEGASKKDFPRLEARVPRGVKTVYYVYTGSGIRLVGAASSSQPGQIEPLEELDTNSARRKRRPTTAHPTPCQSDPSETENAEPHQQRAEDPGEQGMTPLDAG

T3: SPOCD1 fragment 1b (amino acids 205–409), expressed in HEK cells (mouse) (UniProt B1ASB6)
T3 sequence: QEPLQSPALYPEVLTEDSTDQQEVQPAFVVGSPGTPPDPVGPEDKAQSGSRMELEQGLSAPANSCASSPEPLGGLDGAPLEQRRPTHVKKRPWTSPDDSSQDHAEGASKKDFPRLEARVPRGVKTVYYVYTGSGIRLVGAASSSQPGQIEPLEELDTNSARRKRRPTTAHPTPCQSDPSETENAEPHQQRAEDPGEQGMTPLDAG

T4: SPOCD1, full length, mouse wild type, HA epitope-tagged (mouse) (UniProt B1ASB6)
T4 sequence: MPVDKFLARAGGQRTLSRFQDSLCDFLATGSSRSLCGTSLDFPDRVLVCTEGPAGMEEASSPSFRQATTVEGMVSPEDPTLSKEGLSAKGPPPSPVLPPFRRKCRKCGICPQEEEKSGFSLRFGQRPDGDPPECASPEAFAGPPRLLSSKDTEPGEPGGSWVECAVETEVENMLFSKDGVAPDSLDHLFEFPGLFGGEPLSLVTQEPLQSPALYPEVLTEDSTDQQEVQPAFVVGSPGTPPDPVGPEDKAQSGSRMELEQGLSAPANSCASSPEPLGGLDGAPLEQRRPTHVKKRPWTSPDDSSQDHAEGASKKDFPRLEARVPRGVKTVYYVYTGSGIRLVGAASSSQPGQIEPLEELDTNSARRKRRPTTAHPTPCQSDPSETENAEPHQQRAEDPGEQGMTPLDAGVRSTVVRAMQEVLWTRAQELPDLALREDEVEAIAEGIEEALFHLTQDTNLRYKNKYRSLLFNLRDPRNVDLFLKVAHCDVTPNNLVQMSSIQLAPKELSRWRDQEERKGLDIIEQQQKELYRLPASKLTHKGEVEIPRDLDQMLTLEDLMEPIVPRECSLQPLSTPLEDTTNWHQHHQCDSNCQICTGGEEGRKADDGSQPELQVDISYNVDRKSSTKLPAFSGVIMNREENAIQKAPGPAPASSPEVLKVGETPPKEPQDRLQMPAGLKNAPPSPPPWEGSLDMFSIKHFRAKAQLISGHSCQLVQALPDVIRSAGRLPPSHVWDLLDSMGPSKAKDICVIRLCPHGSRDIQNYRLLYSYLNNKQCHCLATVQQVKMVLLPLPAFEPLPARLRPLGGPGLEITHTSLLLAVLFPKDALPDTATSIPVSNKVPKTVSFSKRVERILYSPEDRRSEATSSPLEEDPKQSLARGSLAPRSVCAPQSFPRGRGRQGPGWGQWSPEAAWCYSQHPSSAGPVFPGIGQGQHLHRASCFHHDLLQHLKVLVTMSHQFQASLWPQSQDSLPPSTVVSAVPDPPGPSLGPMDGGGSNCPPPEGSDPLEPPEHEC

T5: SPOCD1, full length, mouse wild type, HA epitope-tagged (mouse), B1ASB6
T5 chain: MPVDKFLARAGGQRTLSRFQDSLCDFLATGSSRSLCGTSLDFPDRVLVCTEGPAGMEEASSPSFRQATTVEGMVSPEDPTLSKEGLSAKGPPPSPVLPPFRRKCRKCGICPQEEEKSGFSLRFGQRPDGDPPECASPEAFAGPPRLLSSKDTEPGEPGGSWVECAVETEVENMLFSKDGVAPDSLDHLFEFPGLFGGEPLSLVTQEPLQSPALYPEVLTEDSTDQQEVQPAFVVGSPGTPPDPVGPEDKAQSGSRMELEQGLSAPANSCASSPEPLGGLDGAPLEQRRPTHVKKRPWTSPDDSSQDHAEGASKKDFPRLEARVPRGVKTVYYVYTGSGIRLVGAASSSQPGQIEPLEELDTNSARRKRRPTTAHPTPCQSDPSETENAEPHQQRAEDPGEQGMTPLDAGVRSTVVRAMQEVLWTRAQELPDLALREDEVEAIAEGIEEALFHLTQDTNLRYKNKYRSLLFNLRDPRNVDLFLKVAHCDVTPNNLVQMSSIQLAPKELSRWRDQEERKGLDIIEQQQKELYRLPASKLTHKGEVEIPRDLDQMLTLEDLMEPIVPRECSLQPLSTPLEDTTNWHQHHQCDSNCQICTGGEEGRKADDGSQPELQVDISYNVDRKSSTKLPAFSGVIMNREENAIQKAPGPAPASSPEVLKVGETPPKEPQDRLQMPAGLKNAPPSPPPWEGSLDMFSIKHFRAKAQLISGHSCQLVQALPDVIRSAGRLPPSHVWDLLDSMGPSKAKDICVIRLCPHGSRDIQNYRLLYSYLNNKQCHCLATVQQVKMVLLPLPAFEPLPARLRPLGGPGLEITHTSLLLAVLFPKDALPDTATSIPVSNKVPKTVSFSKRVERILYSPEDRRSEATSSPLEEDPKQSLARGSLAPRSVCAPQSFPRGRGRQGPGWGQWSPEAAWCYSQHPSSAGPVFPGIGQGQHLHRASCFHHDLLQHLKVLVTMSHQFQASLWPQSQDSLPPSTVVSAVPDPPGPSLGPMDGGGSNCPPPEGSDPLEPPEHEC


Assays:
Assay in all cases: co-IP; HEK293T co-transfected; lysis in IP buffer (150 mM KCl, 2.5 mM MgCl2, 0.5% Triton X-100, 50 mM Tris-HCl pH 8, benzonase); anti-HA beads 1 h at 4 °C; western blot
[1] = target: T1, GFP fused with 20 amino acids (327–346) of mouse SPOCD1 (mouse)
[2] = target: T2, SPOCD1 fragment 1 (amino acids 1–409) (mouse)
[3] = target: T3, SPOCD1 fragment 1b (amino acids 205–409), expressed in HEK cells (mouse)
[4] = target: T4, SPOCD1, full length, mouse wild type, HA epitope-tagged (mouse)
[5] = target: T5, SPOCD1, full length, mouse wild type, …; settings: remark: other sources report otherwise

| binding [1] | binding [2] | binding [3] | binding [4] | binding [5] | Molecule |
| --- | --- | --- | --- | --- | --- |
| binds | binds | binds | binds | – | SPIN1 (SPINDLIN1), co-expressed in HEK cells (from UniProt Q61142 1-262) |
| – | – | – | – | binds | FLAG-tagged DNMT3L, Q9CWR8 1-421 (protein) MGSRETPSSCSKTLETLDLETSDSSSPDADSPLEEQWLKSSPALKEDSVDVVLEDCKEPLSPSSPPTGREMIRYEVKVNRRSIEDICLCCGTLQVYTRHPLFEGGLCAPCKDKFLESLFLYDDDGHQSYCTICCSGGTLFICESPDCTRCYCFECVDILVGPGTSERINAMACWVCFLCLPFSRSGLLQRRKRWRHQLKAFHDQEGAGPMEIYKTVSAWKRQPVRVLSLFRNIDKVLKSLGFLESGSGSGGGTLKYVEDVTNVVRRDVEKWGPFDLVYGSTQPLGSSCDRCPGWYMFQFHRILQYALPRQESQRPFFWIFMDNLLLTEDDQETTTRFLQTEAVTLQDVRGRDYQNAMRVWSNIPGLKSKHAPLTPKEEEYLQAQVRSRSKLDAPKVDLLVKNCLLPLREYFKYFSQNSLPL |
